Laboratory results as given in patent US10858414 (dated 2020).

Assay: general procedure: hybrid (solid and solution phase) peptide synthesis; preloaded Fmoc-Leu-Wang resin (0.81 mmol/gram); HBTU/OxymaPure/DIPEA; DIC/DMAP for Cam ester formation
Details: coupling step

| Substance | crude LC-MS purity [area %] | outcome |
| --- | --- | --- |
| PTC-Phe-^1His-^2Ala-^3Glu-^4Gly-^5Thr-^6Phe-^7Thr-^8Ser-^9Asp-^10Val-^11Ser-^12Ser-^13Tyr-^14Leu-^15Glu-^16Gly-^17Gln-^18Ala-^19Ala-^20Lys-^21Glu-^22Phe-^23Ile-^24Ala-^25Trp-^26Leu-^27Val-^28Arg-^29Gly-^30Arg-^31Gly-OH | 82 | – |
| PTC-Phe-^1His-^2Aib-^3Glu-^4Gly-^5Thr-^6Phe-^7Thr-^8Ser-^9Asp-^10Val-^11Ser-^12Ser-^13Tyr-^14Leu-^15Glu-^16Gly-^17Gln-^18Ala-^19Ala-^20Lys-^21Glu-^22Phe-^23Ile-^24Ala-^25Trp-^26Leu-^27Val-^28Arg-^29Gly-^30Arg-^31Gly-OH | 80 | The coupling failed. |
